Source: the supplement of paper PMC8728848
Some of the results follow.

Key:
Test in all cases: glycan array binding signal (z-score within array); higher = stronger binding
Details in all cases: glycan notation: IUPAC condensed, linker removed
[1] = target: Neu5Ac(a2-6)GlcNAc(b1-4)GlcNAc
Procedure, shortened: (§1)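 Glycan array data came from 3228 arrays in the Consortium for Functional Glycomics database, and only arrays with an available protein sequence were kept. Glycan names were put into IUPAC-condensed notation, and columns mapping to the same glycan were averaged. The binding signal is a within-array Z-score, averaged across arrays of one protein sequence run at different concentrations or buffers and across linkers. A negative Z-score can be read as non-binding.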

[2] = target: Neu5Ac(a2-6)GlcNAc(b1-4)GlcNAc(b1-4)GlcNAc
Procedure, shortened: as §1

Neu5Ac(a2-8)Neu5Ac = target: Neu5Ac(a2-8)Neu5Ac
Procedure, shortened: as §1

[3] = target: Neu5Ac(a2-8)Neu5Ac(a2-3)Gal(b1-3)GalNAc(b1-4)[Neu5Ac(a2-3)]Gal(b1-4)Glc
Procedure, shortened: as §1

[4] = target: Neu5Ac(a2-8)Neu5Ac(a2-3)Gal(b1-3)GalNAc(b1-4)[Neu5Ac(a2-8)Neu5Ac(a2-3)]Gal(b1-4)Glc
Procedure, shortened: as §1

[5] = target: Neu5Ac(a2-8)Neu5Ac(a2-3)Gal(b1-4)Glc
Procedure, shortened: as §1

[6] = target: Neu5Ac(a2-8)Neu5Ac(a2-3)Gal(b1-4)GlcNAc
Procedure, shortened: as §1

[7] = target: Neu5Ac(a2-8)Neu5Ac(a2-3)[Gal(b1-3)GalNAc(b1-4)]Gal(b1-4)Glc
Procedure, shortened: as §1

[8] = target: Neu5Ac(a2-8)Neu5Ac(a2-3)[GalNAc(b1-4)]Gal(b1-4)Glc
Procedure, shortened: as §1

[9] = target: Neu5Ac(a2-8)Neu5Ac(a2-8)Neu5Ac
Procedure, shortened: as §1

[10] = target: Neu5Ac(a2-8)Neu5Ac(a2-8)Neu5Ac(a2-3)Gal(b1-4)Glc
Procedure, shortened: as §1

[11] = target: Neu5Ac(a2-8)Neu5Ac(a2-8)Neu5Ac(a2-3)[Gal(b1-3)GalNAc(b1-4)]Gal(b1-4)Glc
Procedure, shortened: as §1

[12] = target: Neu5Ac(a2-8)Neu5Ac(a2-8)Neu5Ac(a2-3)[GalNAc(b1-4)]Gal(b1-4)Glc
Procedure, shortened: as §1

[13] = target: Neu5Ac(a2-8)Neu5Ac(a2-8)Neu5Ac(a2-8)Neu5Ac(a2-3)[GalNAc(b1-4)]Gal(b1-4)Glc
Procedure, shortened: as §1

[14] = target: Neu5Ac(a2-8)Neu5Gc(a2-3)Gal(b1-4)GlcNAc
Procedure, shortened: as §1

[15] = target: Neu5Ac(b2-6)Gal(b1-4)GlcNAc
Procedure, shortened: as §1

Neu5Ac(b2-6)GalNAc = target: Neu5Ac(b2-6)GalNAc
Procedure, shortened: as §1

[16] = target: Neu5Ac9Ac(a2-3)Gal(b1-3)GlcNAc
Procedure, shortened: as §1

[17] = target: Neu5Ac9Ac(a2-3)Gal(b1-4)GlcNAc
Procedure, shortened: as §1

[18] = target: Neu5Ac9Ac(a2-6)Gal(b1-4)GlcNAc
Procedure, shortened: as §1

[19] = target: Neu5Gc(a2-3)Gal(b1-3)GlcNAc
Procedure, shortened: as §1

[20] = target: Neu5Gc(a2-3)Gal(b1-3)[Fuc(a1-4)]GlcNAc
Procedure, shortened: as §1

Neu5Gc(a2-3)Gal(b1-4)Glc = target: Neu5Gc(a2-3)Gal(b1-4)Glc
Procedure, shortened: as §1

[21] = target: Neu5Gc(a2-3)Gal(b1-4)GlcNAc
Procedure, shortened: as §1

[22] = target: Neu5Gc(a2-3)Gal(b1-4)GlcNAc(b1-3)Gal(b1-4)GlcNAc(b1-2)Man(a1-3)[Neu5Gc(a2-3)Gal(b1-4)GlcNAc(b1-3)Gal(b1-4)GlcNAc(b1-2)Man(a1-6)]Man(b1-4)GlcNAc(b1-4)GlcNAc
Procedure, shortened: as §1

[23] = target: Neu5Gc(a2-3)Gal(b1-4)[Fuc(a1-3)]GlcNAc
Procedure, shortened: as §1

[24] = target: Neu5Gc(a2-6)Gal(b1-4)GlcNAc
Procedure, shortened: as §1

Neu5Gc(a2-6)GalNAc = target: Neu5Gc(a2-6)GalNAc
Procedure, shortened: as §1

[25] = target: Neu5Gc(a2-8)Neu5Ac(a2-3)Gal(b1-4)GlcNAc
Procedure, shortened: as §1

[26] = target: Neu5Gc(a2-8)Neu5Gc(a2-3)Gal(b1-4)GlcNAc
Procedure, shortened: as §1

[27] = target: Neu5Gc(a2-8)Neu5Gc(a2-3)Gal(b1-4)GlcNAc(b1-3)Gal(b1-4)GlcNAc
Procedure, shortened: as §1

[28] = target: Neu5Gc(a2-8)Neu5Gc(a2-6)Gal(b1-4)GlcNAc
Procedure, shortened: as §1

[29] = target: Neu5Gc(b2-6)Gal(b1-4)GlcNAc
Procedure, shortened: as §1

B1: AT5G24760(45) (Arabidopsis thaliana), Q8LEB2 (protein)
chain: MSASSSSFEQPQVITCNAAVAWRAGEPLVMEEVEVSPPQPLEIRIKVVCTSLCRSDLSAWESQSLLPRIFGHEAAGIVESIGEGVTEFEKGDHVLAVFTGECGSCRHCISGKSNMCQVLGMERKGLMHSDQKTRFSIKGKPVYHYCAVSSFSEYTVVHSGCAVKVDPLAPLHKICLLSCGVAAGLGAAWNVADVQKGSSVVIFGLGTVGLSVAQGAKLRGAAQILGVDINPAKAEQAKTFGVTDFINSNDLSEPIPQVIKRMTGGGADFSFECVGDTGIATTALQSCSDGWGMTVTLGVPKAKPEVSAHYGLFLSGKSLKGTLFGGWKPKSDLPSLIDKYMNKEIMIDEFITHNLSFDEINKAFVLMREGKCLRCVLHMPK
- glycan array binding signal (z-score) [1]: -0.617
- glycan array binding signal (z-score) [2]: -0.415
- glycan array binding signal (z-score) (Neu5Ac(a2-8)Neu5Ac): -0.417
- glycan array binding signal (z-score) [3]: -0.193
- glycan array binding signal (z-score) [4]: 0.742
- glycan array binding signal (z-score) [5]: -0.912
- glycan array binding signal (z-score) [6]: -0.977
- glycan array binding signal (z-score) [7]: -0.745
- glycan array binding signal (z-score) [8]: -0.388
- glycan array binding signal (z-score) [9]: -0.52
- glycan array binding signal (z-score) [10]: -0.582
- glycan array binding signal (z-score) [11]: 0.125
- glycan array binding signal (z-score) [12]: -0.3
- glycan array binding signal (z-score) [13]: -0.891
- glycan array binding signal (z-score) [14]: -0.69
- glycan array binding signal (z-score) [15]: 0.859
- glycan array binding signal (z-score) (Neu5Ac(b2-6)GalNAc): -0.023
- glycan array binding signal (z-score) [16]: -0.638
- glycan array binding signal (z-score) [17]: -0.392
- glycan array binding signal (z-score) [18]: 0.139
- glycan array binding signal (z-score) [19]: 1.13
- glycan array binding signal (z-score) [20]: -0.429
- glycan array binding signal (z-score) (Neu5Gc(a2-3)Gal(b1-4)Glc): 0.633
- glycan array binding signal (z-score) [21]: -0.402
- glycan array binding signal (z-score) [22]: -0.38
- glycan array binding signal (z-score) [23]: -0.203
- glycan array binding signal (z-score) [24]: 0.288
- glycan array binding signal (z-score) (Neu5Gc(a2-6)GalNAc): -0.275
- glycan array binding signal (z-score) [25]: -1.3
- glycan array binding signal (z-score) [26]: -0.657
- glycan array binding signal (z-score) [27]: -0.497
- glycan array binding signal (z-score) [28]: -1.16
- glycan array binding signal (z-score) [29]: 1.15
